PubChem BioAssay AID1259405, NCATS | 2018
The deposit covers about 50,000 reagents; below is a random part of them. In the full data, about 4,000 (8%) were called active. 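Mouse siRNA library applied to hamster cells; one well for each siRNA.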 Reagents against one gene are numbered here.

Aim: 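Knock-downs that lift recombinant protein yield in hamster ovary cells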 (primary screen)
Cell system: Chinese hamster CHO-K1 ovary cells with stable secreted eGFP expression
Reagent: single siRNA against mouse genes, 0.8 pmol siRNA per well (2 µl of 400 nM stock)
Time to read-out: 3 days
Measured: 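Percent of the per-plate non-targeting control median for intracellular GFP per well by laser scanning cytometry and for cell viability by ATP luminescence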
Reading the numbers: GFP, % of control: higher = more GFP per well, higher productivity; viability (ATP), % of control: higher = more viable cells (more ATP)
Rule for the call: 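Called active when intracellular GFP, relative to negative control, is at or above 120%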

C230012O17Rik (RIKEN cDNA C230012O17 gene) #1 → GFP, % of control = 80.7; viability (ATP), % of control = 42.2; call = inactive
C230012O17Rik (RIKEN cDNA C230012O17 gene) #2 → GFP, % of control = 113; viability (ATP), % of control = 105; call = inactive
C230012O17Rik (RIKEN cDNA C230012O17 gene) #3 → GFP, % of control = 124; viability (ATP), % of control = 130; call = active
Wdr91 (WD repeat domain 91) #1 → GFP, % of control = 63.8; viability (ATP), % of control = 38.6; call = inactive
Wdr91 (WD repeat domain 91) #2 → GFP, % of control = 60.6; viability (ATP), % of control = 58.3; call = inactive
Wdr91 (WD repeat domain 91) #3 → GFP, % of control = 74.1; viability (ATP), % of control = 81.5; call = inactive
Vwc2l (von Willebrand factor C domain-containing protein 2-like) #1 → GFP, % of control = 55.3; viability (ATP), % of control = 37.8; call = inactive
Vwc2l (von Willebrand factor C domain-containing protein 2-like) #2 → GFP, % of control = 55.8; viability (ATP), % of control = 68.6; call = inactive
Vwc2l (von Willebrand factor C domain-containing protein 2-like) #3 → GFP, % of control = 50.1; viability (ATP), % of control = 81.8; call = inactive
Pyurf (Pigy upstream reading frame) #1 → GFP, % of control = 108; viability (ATP), % of control = 66.8; call = inactive
Pyurf (Pigy upstream reading frame) #2 → GFP, % of control = 108; viability (ATP), % of control = 89.5; call = inactive
Pyurf (Pigy upstream reading frame) #3 → GFP, % of control = 95.6; viability (ATP), % of control = 71.1; call = inactive
Smad5 (SMAD family member 5) #1 → GFP, % of control = 67.6; viability (ATP), % of control = 71.1; call = inactive
Smad5 (SMAD family member 5) #2 → GFP, % of control = 75.5; viability (ATP), % of control = 70.2; call = inactive
Smad5 (SMAD family member 5) #3 → GFP, % of control = 72.1; viability (ATP), % of control = 89.9; call = inactive
Ufsp2 (UFM1-specific peptidase 2) #1 → GFP, % of control = 79.2; viability (ATP), % of control = 63.6; call = inactive
Ufsp2 (UFM1-specific peptidase 2) #2 → GFP, % of control = 95.1; viability (ATP), % of control = 67.5; call = inactive
Ufsp2 (UFM1-specific peptidase 2) #3 → GFP, % of control = 103; viability (ATP), % of control = 73.9; call = inactive
Tmem138 (transmembrane protein 138) #1 → GFP, % of control = 56.4; viability (ATP), % of control = 47.9; call = inactive
Tmem138 (transmembrane protein 138) #2 → GFP, % of control = 97.9; viability (ATP), % of control = 74.5; call = inactive
Tmem138 (transmembrane protein 138) #3 → GFP, % of control = 85.3; viability (ATP), % of control = 73.3; call = inactive

Called active, among the entries above:
C230012O17Rik (RIKEN cDNA C230012O17 gene) #3 → GFP, % of control = 124; viability (ATP), % of control = 130; call = active

Further records:
Cradd (CASP2 and RIPK1 domain containing adaptor with death domain) #1 → GFP, % of control = 80.2; viability (ATP), % of control = 98.2; call = inactive
Cradd (CASP2 and RIPK1 domain containing adaptor with death domain) #2 → GFP, % of control = 61.9; viability (ATP), % of control = 58.4; call = inactive
Cradd (CASP2 and RIPK1 domain containing adaptor with death domain) #3 → GFP, % of control = 58.5; viability (ATP), % of control = 72.4; call = inactive
Trmt1 (tRNA methyltransferase 1) #1 → GFP, % of control = 57.2; viability (ATP), % of control = 60.8; call = inactive
Trmt1 (tRNA methyltransferase 1) #2 → GFP, % of control = 110; viability (ATP), % of control = 69; call = inactive
Trmt1 (tRNA methyltransferase 1) #3 → GFP, % of control = 62.6; viability (ATP), % of control = 75.9; call = inactive
Clec11a (C-type lectin domain family 11, member a) #1 → GFP, % of control = 74; viability (ATP), % of control = 105; call = inactive
Clec11a (C-type lectin domain family 11, member a) #2 → GFP, % of control = 97.2; viability (ATP), % of control = 73.1; call = inactive
Clec11a (C-type lectin domain family 11, member a) #3 → GFP, % of control = 72.1; viability (ATP), % of control = 56.1; call = inactive
Spag16 (sperm associated antigen 16) #1 → GFP, % of control = 82.3; viability (ATP), % of control = 77.8; call = inactive
Spag16 (sperm associated antigen 16) #2 → GFP, % of control = 114; viability (ATP), % of control = 89.3; call = inactive
Spag16 (sperm associated antigen 16) #3 → GFP, % of control = 104; viability (ATP), % of control = 92; call = inactive
Col5a1 (collagen, type V, alpha 1) #1 → GFP, % of control = 84; viability (ATP), % of control = 110; call = inactive
Col5a1 (collagen, type V, alpha 1) #2 → GFP, % of control = 75.2; viability (ATP), % of control = 79.6; call = inactive
Mia2 (MIA SH3 domain ER export factor 2) #1 → GFP, % of control = 54.8; viability (ATP), % of control = 48; call = inactive
Mia2 (MIA SH3 domain ER export factor 2) #2 → GFP, % of control = 31.3; viability (ATP), % of control = 54.8; call = inactive
Mia2 (MIA SH3 domain ER export factor 2) #3 → GFP, % of control = 76.6; viability (ATP), % of control = 68.8; call = inactive
Mia2 (MIA SH3 domain ER export factor 2) #4 → GFP, % of control = 35.3; viability (ATP), % of control = 52.8; call = inactive
Mia2 (MIA SH3 domain ER export factor 2) #5 → GFP, % of control = 76.1; viability (ATP), % of control = 96.3; call = inactive
Mia2 (MIA SH3 domain ER export factor 2) #6 → GFP, % of control = 85.4; viability (ATP), % of control = 81.9; call = inactive
